Experimental data as given in US20260384765A1, “ANTHRANILATE SYNTHASE MUTANT AND USE THEREOF” (published 2026).

System: TrpE (S40M/S94N) (anthranilate synthase mutant)
Experiment: Determination of tryptophan inhibition curves, TrpE (S40M/S94N)
Settings: role: inhibitor; S40M/S94N vs wild type; substrate chorismate 300 μM; pH 9.0
Protocol: Experimental steps: a reaction buffer was prepared to contain 100 mM NH4Cl, 10 mM MgCl2, 20 mM Tris-HCl, and 0.1 mM ethylenediaminetetraacetic acid (EDTA), and the pH was adjusted to 9.0. 50 ml of the buffer was prepared into an 8 g/L tryptophan buffer, and the pH was adjusted to 9.0. The buffers prepared in the previous two steps were mixed in proportion to obtain tryptophan buffers having different concentrations. In a completely black, opaque microplate, 200 μl of tryptophan buffers having different concentrations were added, and the mutant enzyme solution prepared in Example 2 was added to a final concentration of 0.1 μM, followed by incubation at 30 °C for 10 min. […] A fluorescence microplate reader was used to measure the fluorescence value at 400 nm after excitation at 320 nm, with detection performed once every ten seconds. The microplate reader automatically plotted a curve of fluorescence value over time. The concentration of the reaction product anthranilate and the fluorescence value were in a linear relationship when the anthranilate concentration was within 0-50 μM. The initial slope of the curve plotted by the microplate reader when the tryptophan concentration was 0 was defined as enzyme activity=1.0, and the ratio of the slope under different tryptophan concentrations to the slope without feedback inhibition was defined as relative enzyme activity. […]

## N[C@@H](Cc1c[nH]c2ccccc12)C(=O)O
  increase of inhibition constant Ki for tryptophan compared with the wild type: more than 533 fold and 533 fold

A number of entries come with more than one value. This list holds those alone. An entry can have further records. Values given together do not match, cause unknown; they may come from other doses, times, organisms or constructs than stated.
